Results deposited as PubChem BioAssay AID1117269 (University of Michigan, 2014).

Assay: 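Kinome-wide knockdown screen for regulators of TGF-beta reporter output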 (primary screen)
System: human A549 lung cancer and 1833 breast cancer (MDA-MB-231-derived) cell lines carrying a stable BTR luciferase reporter
Knock-down reagent: siRNA pool against human genes
Timing: 72 h after transfection, then 1 h TGF-beta before the read
Treatment: TGF-beta 10 ng/mL added one hour before luciferin and read-out
Measurement: 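Live-cell BTR luciferase signal at 72 h after transfection and 1 h of TGF-beta at 10 ng/mL, fold versus scrambled siRNA, triplicate mean for each line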
Scale: fold over scrambled siRNA, A549 and fold over scrambled siRNA, 1833: higher = more reporter light, weaker TGF-beta receptor signalling
Active means: 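Active if a hit in A549 or 1833; a line's hit exceeds an upper quartile-based cutoff on mean log fold values, applied per plate and across the whole screen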
Calls: active = hit in at least one line; inactive = hit in neither line
Here is a random part of 714 reagents. 49 of all reagents (6.9%) were called active. 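Active means a hit in at least one line; per-line hit columns show which; some siRNA pools appear more than once.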 A reagent listed more than once was tested more than once; the source does not tell the runs apart. The record does not give: the amount of reagent.

gene	fold over scrambled siRNA, A549	fold over scrambled siRNA, 1833	hit in A549	hit in 1833	outcome
MAP2K4 (mitogen-activated protein kinase kinase 4)	1.78	2.18	not a hit in A549	not a hit in 1833	inactive
CDK18 (cyclin dependent kinase 18)	1.96	4.73	not a hit in A549	not a hit in 1833	inactive
MAP3K12 (mitogen-activated protein kinase kinase kinase 12)	2.38	1.57	not a hit in A549	not a hit in 1833	inactive
TYK2 (tyrosine kinase 2)	1.57	6.84	not a hit in A549	not a hit in 1833	inactive
ACVRL1 (activin A receptor like type 1)	3.67	6.93	not a hit in A549	not a hit in 1833	inactive
GALK1 (galactokinase 1)	0.857	2	not a hit in A549	not a hit in 1833	inactive
NLK (nemo like kinase)	0.944	2.87	not a hit in A549	not a hit in 1833	inactive
CDC42BPB (CDC42 binding protein kinase beta)	4.96	2.76	not a hit in A549	not a hit in 1833	inactive
JAK3 (Janus kinase 3)	1.87	1.1	not a hit in A549	not a hit in 1833	inactive
DYRK1B	1.74	4.9	not a hit in A549	not a hit in 1833	inactive
CALM3 (calmodulin 3)	4.29	6.81	not a hit in A549	not a hit in 1833	inactive
UCK1 (uridine-cytidine kinase 1)	1.71	7.98	not a hit in A549	not a hit in 1833	inactive
STYK1 (STY kinase 1)	1.15	1.75	not a hit in A549	not a hit in 1833	inactive
MAPK13 (mitogen-activated protein kinase 13)	2	2.34	not a hit in A549	not a hit in 1833	inactive
TSSK6 (testis specific serine kinase 6)	0.51	0.407	not a hit in A549	not a hit in 1833	inactive
TSSK6 (testis specific serine kinase 6)	3.9	6.02	not a hit in A549	not a hit in 1833	inactive
PTK6 (protein tyrosine kinase 6)	1.11	3.07	not a hit in A549	not a hit in 1833	inactive
DGKG (diacylglycerol kinase gamma)	1.36	3.1	not a hit in A549	not a hit in 1833	inactive
CDK4 (cyclin dependent kinase 4)	1.67	6.57	not a hit in A549	not a hit in 1833	inactive
TYRO3 (TYRO3 protein tyrosine kinase)	2.07	2.86	not a hit in A549	not a hit in 1833	inactive
GK2 (glycerol kinase 2)	4.67	9.76	not a hit in A549	not a hit in 1833	inactive
PEAK1 (pseudopodium enriched atypical kinase 1)	0.648	2.46	not a hit in A549	not a hit in 1833	inactive
PRKAR1A	1.05	2.33	not a hit in A549	not a hit in 1833	inactive
WHR1 (winged helix repair factor 1)	1.33	5.38	not a hit in A549	not a hit in 1833	inactive
ACVR2A (activin A receptor type 2A)	1.61	2.07	not a hit in A549	not a hit in 1833	inactive
CSK (C-terminal Src kinase)	0.955	4.73	not a hit in A549	not a hit in 1833	inactive
STK32A (serine/threonine kinase 32A)	3.37	0.852	not a hit in A549	not a hit in 1833	inactive
CSNK2A1 (casein kinase 2 alpha 1)	2.86	4.97	not a hit in A549	not a hit in 1833	inactive
HIPK2 (homeodomain interacting protein kinase 2)	2.34	9.04	not a hit in A549	not a hit in 1833	inactive
CKMT2 (creatine kinase, mitochondrial 2)	1.46	4.8	not a hit in A549	not a hit in 1833	inactive
EGFR (epidermal growth factor receptor)	2.86	2.89	not a hit in A549	not a hit in 1833	inactive
TK2 (thymidine kinase 2)	1.81	3.52	not a hit in A549	not a hit in 1833	inactive
ITPKA (inositol-trisphosphate 3-kinase A)	1.66	4.9	not a hit in A549	not a hit in 1833	inactive
CDK6 (cyclin dependent kinase 6)	0.569	0.746	not a hit in A549	not a hit in 1833	inactive
MATK (megakaryocyte-associated tyrosine kinase)	1.24	8.87	not a hit in A549	not a hit in 1833	inactive
NEK6 (NIMA related kinase 6)	5.46	13.9	hit in A549	hit in 1833	active
CHKB (choline kinase beta)	2.67	6.14	not a hit in A549	not a hit in 1833	inactive
MKNK1 (MAPK interacting serine/threonine kinase 1)	1.98	1.62	not a hit in A549	not a hit in 1833	inactive
HIPK1 (homeodomain interacting protein kinase 1)	3.29	5.93	not a hit in A549	not a hit in 1833	inactive
BUB1B (BUB1 mitotic checkpoint serine/threonine kinase B)	2.89	2.6	not a hit in A549	not a hit in 1833	inactive
MAPK3 (mitogen-activated protein kinase 3)	2.89	13.7	not a hit in A549	hit in 1833	
AK4 (adenylate kinase 4)	2.68	2.73	not a hit in A549	not a hit in 1833	inactive
ERBB2 (erb-b2 receptor tyrosine kinase 2)	4.51	3.29	not a hit in A549	not a hit in 1833	inactive
TAOK3 (TAO kinase 3)	3.6	3.22	not a hit in A549	not a hit in 1833	inactive
BTK (Bruton tyrosine kinase)	3.51	4.57	not a hit in A549	not a hit in 1833	inactive
SNRK (SNF related kinase)	1.41	1.33	not a hit in A549	not a hit in 1833	inactive
ERN1 (endoplasmic reticulum to nucleus signaling 1)	0.631	0.683	not a hit in A549	not a hit in 1833	inactive
RBKS (ribokinase)	1.42	2.9	not a hit in A549	not a hit in 1833	inactive
MAPK6 (mitogen-activated protein kinase 6)	2.37	2.67	not a hit in A549	not a hit in 1833	inactive
STRADA (STE20 related adaptor alpha)	3.86	6.13	not a hit in A549	not a hit in 1833	inactive
PASK (PAS domain containing serine/threonine kinase)	1.33	2.71	not a hit in A549	not a hit in 1833	inactive
MAGI2	2.02	1.95	not a hit in A549	not a hit in 1833	inactive
PRKAG1 (protein kinase AMP-activated non-catalytic subunit gamma 1)	6.93	8.29	hit in A549	not a hit in 1833	active
PIP5KL1 (phosphatidylinositol-4-phosphate 5-kinase like 1)	3.19	5.08	not a hit in A549	not a hit in 1833	inactive
LMTK2 (lemur tail kinase 2)	1.5	13.1	not a hit in A549	hit in 1833	
HK2 (hexokinase 2)	1.1	5.76	not a hit in A549	not a hit in 1833	inactive
ERN2 (endoplasmic reticulum to nucleus signaling 2)	1.48	1.33	not a hit in A549	not a hit in 1833	inactive

8 of these entries, set out differently:
NEK6 (NIMA related kinase 6) | fold over scrambled siRNA, A549: 5.46; fold over scrambled siRNA, 1833: 13.9; hit in A549: hit in A549; hit in 1833: hit in 1833; outcome: active
CHKB (choline kinase beta) | fold over scrambled siRNA, A549: 2.67; fold over scrambled siRNA, 1833: 6.14; hit in A549: not a hit in A549; hit in 1833: not a hit in 1833; outcome: inactive
MKNK1 (MAPK interacting serine/threonine kinase 1) | fold over scrambled siRNA, A549: 1.98; fold over scrambled siRNA, 1833: 1.62; hit in A549: not a hit in A549; hit in 1833: not a hit in 1833; outcome: inactive
HIPK1 (homeodomain interacting protein kinase 1) | fold over scrambled siRNA, A549: 3.29; fold over scrambled siRNA, 1833: 5.93; hit in A549: not a hit in A549; hit in 1833: not a hit in 1833; outcome: inactive
BUB1B (BUB1 mitotic checkpoint serine/threonine kinase B) | fold over scrambled siRNA, A549: 2.89; fold over scrambled siRNA, 1833: 2.6; hit in A549: not a hit in A549; hit in 1833: not a hit in 1833; outcome: inactive
MAPK3 (mitogen-activated protein kinase 3) | fold over scrambled siRNA, A549: 2.89; fold over scrambled siRNA, 1833: 13.7; hit in A549: not a hit in A549; hit in 1833: hit in 1833
AK4 (adenylate kinase 4) | fold over scrambled siRNA, A549: 2.68; fold over scrambled siRNA, 1833: 2.73; hit in A549: not a hit in A549; hit in 1833: not a hit in 1833; outcome: inactive
ERBB2 (erb-b2 receptor tyrosine kinase 2) | fold over scrambled siRNA, A549: 4.51; fold over scrambled siRNA, 1833: 3.29; hit in A549: not a hit in A549; hit in 1833: not a hit in 1833; outcome: inactive
